Changes are numbered by the printed parent chain. These are yes or no findings as the source states them, for the method shown. Some entries that bind do so weakly or less than the wild type.
Key:
[1] = target: T1, wild type HLA-DO ectodomain of the DM-DO ectodomain complex (human) (UniProt P06340+P13765); assay: BLI; Octet QK, 37 C, pH 6.3; biotinylated wild type DM-DO complex held on a streptavidin biosensor, dissociation followed in kinetic buffer for over 4 hours; both purified
T1 sequence (chain, biotin on the C-terminal avitag (BirA), in the BLI experiment) 1: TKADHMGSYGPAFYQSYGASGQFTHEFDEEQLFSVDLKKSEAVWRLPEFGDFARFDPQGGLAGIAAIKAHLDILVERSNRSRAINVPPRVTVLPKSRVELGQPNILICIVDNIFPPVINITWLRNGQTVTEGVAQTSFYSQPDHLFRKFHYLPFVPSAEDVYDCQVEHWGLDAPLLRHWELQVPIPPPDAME
T1 sequence (chain, biotin on the C-terminal avitag (BirA), in the BLI experiment) 2: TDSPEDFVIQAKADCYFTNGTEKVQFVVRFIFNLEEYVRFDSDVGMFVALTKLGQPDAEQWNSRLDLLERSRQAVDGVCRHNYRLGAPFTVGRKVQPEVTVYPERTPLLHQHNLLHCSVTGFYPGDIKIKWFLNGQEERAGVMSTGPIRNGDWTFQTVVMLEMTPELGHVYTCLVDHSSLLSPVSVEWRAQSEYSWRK

Chains of the proteins cited; added tags and fusions are not shown. Lines headed by an entry give the natural chain unless they say otherwise; changes in a name come on top.
UniProt P28067: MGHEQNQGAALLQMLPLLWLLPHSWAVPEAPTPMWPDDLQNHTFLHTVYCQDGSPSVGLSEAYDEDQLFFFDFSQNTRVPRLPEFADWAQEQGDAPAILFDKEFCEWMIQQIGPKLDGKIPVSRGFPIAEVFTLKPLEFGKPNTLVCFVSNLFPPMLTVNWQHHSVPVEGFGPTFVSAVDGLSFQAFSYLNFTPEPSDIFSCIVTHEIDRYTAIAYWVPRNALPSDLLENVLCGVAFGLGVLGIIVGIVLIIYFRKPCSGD

[2] = target: T2, biotinylated stabilized HLA-DO variant ectodomain (alpha P11A) (human) (UniProt P06340+P13765); assay: BLI; Octet QK, 37 C, pH 6.3; biotinylated DOv on streptavidin biosensors, soluble DM at several concentrations, then long dissociation in kinetic buffer; both purified
T2 sequence (chain, biotin on the C-terminal avitag (BirA)) 1: T1 sequence (chain, biotin on the C-terminal avitag (BirA), in the BLI experiment) 1 with P11A
T2 sequence (chain, biotin on the C-terminal avitag (BirA)) 2: T1 sequence (chain, biotin on the C-terminal avitag (BirA), in the BLI experiment) 2

binding [1]	binding [2]	Substance
binds		HLA-DM ectodomain of the wild type DM-DO ectodomain complex (from UniProt P28067 27-233; P28068 19-218) (domain or fragment)
	binds	soluble HLA-DM ectodomain (from UniProt P28067 27-233; P28068 19-218) (domain or fragment)

— publication PMC4661524 (Scientific Reports, 2015)
